{"source": "PubChem BioAssay AID1159578 (Peter MacCallum Cancer Centre, 2015)", "aim": "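Genome-wide hunt for genes controlling movement of lymphatic endothelial cells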 (primary screen)", "cell system": "human lymphatic endothelial cells", "knock-down reagent": "siRNA pool against human genes, 40 nM", "time to read-out": "48 h after transfection", "read-out": "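High-content imaging of dye-stained cells in a scratch assay measures filled wound area and nuclei per well; duplicate means given as ratio to mock and robust z-score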", "scale": "migration robust z-score: higher = faster migration into the scratch; nuclei per well: higher = more cells in the well", "active means": "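Migration changed when robust z exceeds 2 or falls below -2 and mean nuclei number is at least 3300; otherwise not called changed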", "calls": "active = migration changed; inactive = no migration change, or too few cells", "note": "The deposit covers about 18,000 reagents; this is a random part of them. Over the whole deposit, about 1,030 (5.7%) were called active. 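Inactive calls also include pools with fewer than 3300 nuclei, whose migration was not assessed.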 Raw values are not corrected between plates. Not all columns of the deposit are shown."}
{"gene symbol": "TPCN2", "migration robust z-score": 0.28, "migration class with cell-count check": "migration z between -2 and 2; enough cells", "nuclei per well, duplicate mean": 6308, "activity call": "inactive"}
{"gene symbol": "IL6", "migration robust z-score": -0.57, "migration class with cell-count check": "migration z between -2 and 2; enough cells", "nuclei per well, duplicate mean": 4958, "activity call": "inactive"}
{"gene symbol": "SLC39A3", "migration robust z-score": 1.61, "migration class with cell-count check": "migration z between -2 and 2; enough cells", "nuclei per well, duplicate mean": 4142, "activity call": "inactive"}
{"gene symbol": "SDR9C7", "migration robust z-score": 4.02, "migration class with cell-count check": "migration z above 2; enough cells", "nuclei per well, duplicate mean": 6342, "activity call": "active"}
{"gene symbol": "ODAPH", "migration robust z-score": -2.4, "migration class with cell-count check": "migration z below -2; enough cells", "nuclei per well, duplicate mean": 6112, "activity call": "active"}

Sorted by “nuclei per well, duplicate mean” (descending): some entries from above
{"gene symbol": "SDR9C7", "migration robust z-score": 4.02, "migration class with cell-count check": "migration z above 2; enough cells", "nuclei per well, duplicate mean": 6342, "activity call": "active"}
{"gene symbol": "SLC39A3", "migration robust z-score": 1.61, "migration class with cell-count check": "migration z between -2 and 2; enough cells", "nuclei per well, duplicate mean": 4142, "activity call": "inactive"}

The listing continues.
{"gene symbol": "TMEM54", "migration robust z-score": 0.21, "migration class with cell-count check": "migration z between -2 and 2; enough cells", "nuclei per well, duplicate mean": 6205, "activity call": "inactive"}
{"gene symbol": "ARSB", "migration robust z-score": -1.14, "migration class with cell-count check": "migration z between -2 and 2; enough cells", "nuclei per well, duplicate mean": 5918, "activity call": "inactive"}
{"gene symbol": "UBE2L6", "migration robust z-score": 0, "migration class with cell-count check": "migration z between -2 and 2; enough cells", "nuclei per well, duplicate mean": 4784, "activity call": "inactive"}
{"gene symbol": "PLVAP", "migration robust z-score": -1.56, "migration class with cell-count check": "migration z between -2 and 2; enough cells", "nuclei per well, duplicate mean": 4700, "activity call": "inactive"}
{"gene symbol": "MRPS35", "migration robust z-score": -0.34, "migration class with cell-count check": "migration z between -2 and 2; enough cells", "nuclei per well, duplicate mean": 5144, "activity call": "inactive"}
{"gene symbol": "CCNT2", "migration robust z-score": 0.3, "migration class with cell-count check": "migration z between -2 and 2; enough cells", "nuclei per well, duplicate mean": 6970, "activity call": "inactive"}
{"gene symbol": "COQ10A", "migration robust z-score": -1.45, "migration class with cell-count check": "migration z between -2 and 2; enough cells", "nuclei per well, duplicate mean": 6140, "activity call": "inactive"}
{"gene symbol": "NUDT2", "migration robust z-score": -2.37, "migration class with cell-count check": "migration z below -2; enough cells", "nuclei per well, duplicate mean": 3784, "activity call": "active"}
{"gene symbol": "CHIC2", "migration robust z-score": 0.05, "migration class with cell-count check": "migration z between -2 and 2; enough cells", "nuclei per well, duplicate mean": 6252, "activity call": "inactive"}
